Our source for the binding values is patent publication US20230126271A1, “DEGRADER-ANTIBODY CONJUGATES AND METHODS OF USING SAME” (Anglex, Inc., priority 2020, published 2023).

B1: monoclonal murine antibody AGX-A09 (antibody, V domains shown)
VH: EVQLQQSGPELVKPGASVKMSCKASGYTFSSYVMHWVKQKPGQGLEWIGYINPYSDVTNYNEKFKGKATLTSDRSSNTAYMELSSLTSEDSAVYYCARNYFDWGRGTLVTVSA
VL: DIQMTQSPASLSASVGETVTITCRASKNVYSYLAWFQQKQGKSPQLLVYNAKTLAEGVPSRFSGGGSGTQFSLKINSLQPADFGSYYCQHHYNIPFTFGSGTKLEIK
B2: monoclonal murine antibody AGX-A07 (antibody, V domains shown)
VH: QIQLVQSGPELKKPGETVKISCKASGYTFTNYGVKWVKQAPGKDLKWMGWINTYTGNPIYAADFKGRFAFSLETSASTAFLQINNLKNEDTATYFCVRFQYGDYRYFDVWGAGTTVTVSS
VL: QIILSQSPAILSASPGEKVTMTCRANSGISFINWYQQKPGSSPKPWIYGTANLASGVPARFGGSGSGTSYSLTISRVEAEDAATYYCQQWSSNPLTFGAGTKLELR
B3: monoclonal murine antibody AGX-A05 (antibody, V domains shown)
VH: EVQVQQSGPELVKPGASVKMSCKASGYTFTSYVMHWVKQKPGQGLEWIGYINPNNDNINYNEKFKGKASLTSDKSSNTVYMELSSLTSEDSAVYYCAGYGNSGANWGQGTLVTVSA
VL: DIQMTQSPASLSASVGETVTITCRTSKNIFNFLAWYHQKQGRSPRLLVSHTKTLAAGVPSRFSGSGSGTQFSLKINSLQPEDFGIYYCQHHYGTPWTFGGGTKLEIK
B4: monoclonal murine antibody AGX-A04 (antibody, V domains shown)
VH: EVQLQQSGPELVKPGASVKISCKTSGYTFTDYTMHWVRQSHGKSLEWIGSFNPNNGGLTNYNQKFKGKATLTVDKSSSTVYMDLRSLTSEDSAVYYCTRIRATGFDSWGQGTTLTVSS
VL: DIVMSQSPSSLAVSAGEKVTMSCKSSQSLLNSRTRKNYLAWYQQKPGQSPKLLIYWASTRESGVPDRFTGSGSGTDFTLTISNVQAEDLTVYYCKQSYNPPWTFGGGTKLEIK
B5: monoclonal murine antibody AGX-A08 (antibody, V domains shown)
VH: EVQLQQSGPELVKPGASVKLSCKASGYTVTSYVMHWVKQKPGQGLEWIGYINPYSDVTNCNEKFKGKATLTSDKTSSTAYMELSSLTSEDSAVYYCSSYGGGFAYWGQGTLVTVSA
VL: DIQMTQSPASLSASVGEPVTITCRASKNIYTYLAWYHQKQGKSPQFLVYNARTLAGGVPSRLSGSGSVTQFSLNINTLHREDLGTYFCQHHYDTPYTFGGGTNLEIK
B6: monoclonal murine antibody AGX-A03 (antibody, V domains shown)
VH: QIQLVQSGPELKKPGETVKISCKASGYSFRDYGMNWVKQAPGRTFKWMGWINTYTGAPVYAADFKGRFAFSLDTSASAAFLQINNLKNEDTATYFCARWVSYGNNRNWFFDFWGAGTTVTVSS
VL: DVLMTQTPLSLPVRLGDQASISCRSSQTLVHSNGNTYLEWYLQKPGQSPKLLIYKVSNRLSGVPDRFSGSGSGTDFTLKISRVETEDLGVYYCFQGSHGPWTFGGGTKLEIK

No constants are given. Whether binding was seen depends on the method and setting. Some binding calls cover weakened binding; strength is not graded here.

The target of this assay is T1, transmembrane-4 L six family member-1 (TM4SF1) (human) (UniProt P30408).
T1 sequence: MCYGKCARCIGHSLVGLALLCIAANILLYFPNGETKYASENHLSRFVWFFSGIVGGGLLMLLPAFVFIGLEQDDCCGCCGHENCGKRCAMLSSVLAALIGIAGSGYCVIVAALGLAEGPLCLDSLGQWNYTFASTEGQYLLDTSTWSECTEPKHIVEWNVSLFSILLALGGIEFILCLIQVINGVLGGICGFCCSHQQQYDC
Put plainly: screen, method not described.
With B1, the binding entry is recorded as “binds”. As to B2, the binding entry is “binds”. Under B3 stands “binds”.

As for B4, the binding entry was “binds”.

In the case of B5, the binding entry is given as “binds”. Under B6 stands “binds”.
